Laboratory results from paper PMC9532900.
The exact form of at least one protein or probe is not confirmed. At least one result comes from cells or an extract, where the contact may be indirect. For some of these results: A negative result means that nothing was seen under these conditions.

Chains of the proteins cited; added tags and fusions are not shown. Lines headed by an entry give the natural chain unless they say otherwise; changes in a name come on top.
UniProt Q16665: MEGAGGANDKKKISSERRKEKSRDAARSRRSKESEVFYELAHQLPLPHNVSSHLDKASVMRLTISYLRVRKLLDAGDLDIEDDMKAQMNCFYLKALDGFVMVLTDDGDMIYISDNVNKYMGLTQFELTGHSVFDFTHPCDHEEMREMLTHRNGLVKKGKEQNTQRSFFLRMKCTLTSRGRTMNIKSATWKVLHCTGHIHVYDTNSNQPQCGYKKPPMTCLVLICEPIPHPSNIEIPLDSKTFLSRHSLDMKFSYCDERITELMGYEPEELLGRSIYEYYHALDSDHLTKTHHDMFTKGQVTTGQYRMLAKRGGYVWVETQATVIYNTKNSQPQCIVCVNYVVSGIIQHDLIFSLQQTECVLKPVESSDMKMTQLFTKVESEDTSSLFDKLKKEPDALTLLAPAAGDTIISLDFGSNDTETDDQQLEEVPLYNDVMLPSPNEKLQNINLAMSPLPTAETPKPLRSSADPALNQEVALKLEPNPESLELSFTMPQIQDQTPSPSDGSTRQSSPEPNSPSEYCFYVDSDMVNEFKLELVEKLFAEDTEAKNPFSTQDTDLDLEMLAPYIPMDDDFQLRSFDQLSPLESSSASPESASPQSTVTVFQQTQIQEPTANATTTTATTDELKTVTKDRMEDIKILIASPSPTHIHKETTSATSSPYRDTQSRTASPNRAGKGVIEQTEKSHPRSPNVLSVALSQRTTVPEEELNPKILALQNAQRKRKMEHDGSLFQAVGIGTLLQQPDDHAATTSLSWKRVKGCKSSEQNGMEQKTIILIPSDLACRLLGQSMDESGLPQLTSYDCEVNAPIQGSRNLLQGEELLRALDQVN

Assays:
HIF1α [1] = molecular target: HIF1α (UniProt Q16665); assay: EMSA; settings: supershift with anti-HIF1α, probe N1; not stated; EMSA performed as described previously (ref 25); protein in an extract; protein details: HA (pHA-HIF1α)
HIF1α [2] = molecular target: HIF1α (UniProt Q16665); assay: competition with a labelled probe; settings: not stated, EMSA performed as described previously (ref 25), protein in an extract, protein details: HA (pHA-HIF1α)
[3] = 30-fold unlabeled vs probe N1, label: none (competitor)
[4] = unlabeled vs probe N3, label: none (competitor)

Row | Sequence | binding result (HIF1α [1]) | binding result (HIF1α [2]; 30-fold unlabeled vs probe N1) | binding result (HIF1α [2]; unlabeled vs probe N3) | binding result (HIF1α [2]; [3]) | binding result (HIF1α [2]; [4])
1 | AGCTTGCCCTACGTGCTGTCTCAGA (double strand) [HIF1α-HRE (consensus)] | binds | binds | binds |  | 
2 | AGCTTGCCCTAAAAGCTGTCTCAGA (double strand) [HIF1α-HRE mut] |  |  |  | no binding | no binding
3 | TGGGAGGCAAAGTCGCTGGG (double strand) [RCAN1.1-HRE mut] |  |  |  | no binding | no binding
